Experimental data published in paper PMC7862700.
The other results are listed elsewhere or left out. The source does not settle which construct or isoform was used.

Target: T1, ETS1 (UniProt P14921)
T1 sequence: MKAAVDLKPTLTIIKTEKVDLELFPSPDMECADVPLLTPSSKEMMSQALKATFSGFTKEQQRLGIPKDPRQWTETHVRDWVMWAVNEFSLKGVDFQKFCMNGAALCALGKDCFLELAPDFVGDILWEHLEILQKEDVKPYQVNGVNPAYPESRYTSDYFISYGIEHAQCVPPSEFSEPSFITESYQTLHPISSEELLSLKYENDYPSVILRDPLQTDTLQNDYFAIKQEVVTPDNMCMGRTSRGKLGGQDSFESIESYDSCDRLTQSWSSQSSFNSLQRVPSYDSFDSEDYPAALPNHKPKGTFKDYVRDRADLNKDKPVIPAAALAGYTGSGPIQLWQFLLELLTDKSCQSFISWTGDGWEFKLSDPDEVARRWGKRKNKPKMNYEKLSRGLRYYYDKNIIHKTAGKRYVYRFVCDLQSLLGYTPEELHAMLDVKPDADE
Test: DAPPL (digital affinity profiling via proximity ligation, sequencing)
Settings: 10 mM Tris-HCl pH 7.5, 50 mM NaCl, 1 mM DTT, 4% glycerol, room temperature, 30 min; GST-TFs on glutathione beads, 16-mer random dsDNA library, 0.1% …; high values mean tight binding; double strand, one strand shown; scale: fold enrichment (6-mer frequency, TF over GST control)

Sequence | binding signal
CATGAT | 1.16
ACTCAC | 1.17
CTGTTG | 1.11
CATCTC | 1.28
CACCTG | 0.984
CCCGAT | 1.08
TGGTCC | 1.18
TGCAGC | 1.05
TACCTG | 1.16
TGGACT | 1.18
TTTGTC | 1.18
ACACGG | 1.04
AAGCTT | 1.24
TTACTT | 1.51
TGCCTC | 1.44
ACGTCC | 1.66
CTTGCT | 1.29
CAACTG | 1.2
TTGTTA | 1.43
ACGACG | 1.2

Sequence | binding signal
GGACAT | 1.14
AGCAAC | 1.09
TTTCCC | 1.7
CTAGCC | 1.07
CAACAC | 1.15
CACCTC | 1.15
ATGCAG | 1.14
ATTCTC | 1.23
TCCCCG | 1.19
GAAGCG | 1.42
AATTAT | 1.22
AGCTAT | 1.18
CACTGC | 1.39
ATTGGT | 1.29
AATCCT | 1.29
CCAACA | 1.02
GTCCTG | 1.09
TCCAAG | 1.09
TGATTC | 1.07

2 entries from above, as a markdown table.

| Sequence | binding signal |
| --- | --- |
| TCCAAG | 1.09 |
| TGATTC | 1.07 |
